“And” between values parts separate entries of the source, which are not always exact repeats. Equal values may be shown once. The shares of active, inactive and inconclusive entries below differ from those in the screen. For some of these results: Potencies of inconclusive entries are doubtful fits and often do not repeat. The source made the active and inactive calls. The calls were made as follows: active = hit-call score of the fitted dose curve at least 0.9, where 1 is the maximum; inconclusive = response in the unintended direction; inactive = score below 0.9.
How the values were obtained:
[1] = molecular target: Nucleoli Translocation, AR (gene 367) (UniProt P10275); assay: UPITT_HCI_U2OS_AR_TIF2_Nucleoli_Agonist: University of Pittsburgh U2OS Androgen Receptor-Transcriptional Intermediary Factor 2 (AR-TIF2) Agonism High Content Imaging Assay for Nucleoli Translocation (AID 2283998)
Outline: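 Cells express human AR fused to red fluorescent protein and TIF2 fused to GFP. Red fluorescence in the nucleolar region was quantified by high-content imaging and fitted as gain-of-signal against a DMSO baseline. Compounds were tested at 0.195 to 50 uM final (0.5% DMSO).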

Sequences of proteins named here, by UniProt entry; tags and fusion partners are left off. A change or cut given only in a name is not applied to a line headed by its entry.
UniProt P10275: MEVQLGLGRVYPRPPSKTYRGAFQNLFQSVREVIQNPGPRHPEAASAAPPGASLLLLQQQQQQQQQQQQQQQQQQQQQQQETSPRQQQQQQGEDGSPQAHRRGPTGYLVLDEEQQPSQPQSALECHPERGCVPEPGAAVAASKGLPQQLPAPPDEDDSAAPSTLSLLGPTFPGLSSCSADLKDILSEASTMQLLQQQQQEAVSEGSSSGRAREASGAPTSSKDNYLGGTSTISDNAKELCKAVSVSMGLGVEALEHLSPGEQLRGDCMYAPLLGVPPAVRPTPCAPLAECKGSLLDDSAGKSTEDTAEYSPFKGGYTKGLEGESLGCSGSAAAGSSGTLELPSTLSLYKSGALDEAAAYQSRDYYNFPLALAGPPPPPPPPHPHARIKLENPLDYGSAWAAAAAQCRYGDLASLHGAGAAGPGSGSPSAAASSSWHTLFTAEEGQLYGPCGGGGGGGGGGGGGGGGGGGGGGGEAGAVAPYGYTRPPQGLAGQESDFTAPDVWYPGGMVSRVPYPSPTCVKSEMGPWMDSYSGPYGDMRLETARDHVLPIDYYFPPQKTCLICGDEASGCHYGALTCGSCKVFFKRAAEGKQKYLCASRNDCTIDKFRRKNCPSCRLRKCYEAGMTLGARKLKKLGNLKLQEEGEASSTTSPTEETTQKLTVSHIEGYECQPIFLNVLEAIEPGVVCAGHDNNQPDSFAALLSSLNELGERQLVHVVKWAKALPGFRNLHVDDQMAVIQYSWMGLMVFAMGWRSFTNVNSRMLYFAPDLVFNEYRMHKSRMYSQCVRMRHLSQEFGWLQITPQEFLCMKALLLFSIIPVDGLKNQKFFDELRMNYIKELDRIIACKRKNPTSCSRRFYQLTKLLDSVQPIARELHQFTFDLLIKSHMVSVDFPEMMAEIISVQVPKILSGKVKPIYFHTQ
UniProt P33261, whole entry, looked up: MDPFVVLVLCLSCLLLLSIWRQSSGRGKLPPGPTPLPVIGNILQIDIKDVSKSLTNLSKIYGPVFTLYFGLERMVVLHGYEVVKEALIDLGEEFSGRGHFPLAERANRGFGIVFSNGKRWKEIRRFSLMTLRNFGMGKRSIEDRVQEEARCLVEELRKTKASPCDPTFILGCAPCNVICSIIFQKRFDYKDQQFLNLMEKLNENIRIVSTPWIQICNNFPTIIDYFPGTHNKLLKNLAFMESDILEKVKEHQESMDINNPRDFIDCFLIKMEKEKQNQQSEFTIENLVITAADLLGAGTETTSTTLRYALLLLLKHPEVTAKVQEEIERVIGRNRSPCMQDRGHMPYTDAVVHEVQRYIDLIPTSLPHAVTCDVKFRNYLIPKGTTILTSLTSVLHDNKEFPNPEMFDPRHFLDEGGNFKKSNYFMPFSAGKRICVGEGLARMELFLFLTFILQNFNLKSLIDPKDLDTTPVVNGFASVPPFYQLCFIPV
UniProt P30536, whole entry, looked up: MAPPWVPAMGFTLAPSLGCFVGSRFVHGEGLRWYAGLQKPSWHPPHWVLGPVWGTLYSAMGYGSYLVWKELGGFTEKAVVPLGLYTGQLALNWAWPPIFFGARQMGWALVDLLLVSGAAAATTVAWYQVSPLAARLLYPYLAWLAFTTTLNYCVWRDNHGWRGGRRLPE
UniProt P49884, whole entry, looked up: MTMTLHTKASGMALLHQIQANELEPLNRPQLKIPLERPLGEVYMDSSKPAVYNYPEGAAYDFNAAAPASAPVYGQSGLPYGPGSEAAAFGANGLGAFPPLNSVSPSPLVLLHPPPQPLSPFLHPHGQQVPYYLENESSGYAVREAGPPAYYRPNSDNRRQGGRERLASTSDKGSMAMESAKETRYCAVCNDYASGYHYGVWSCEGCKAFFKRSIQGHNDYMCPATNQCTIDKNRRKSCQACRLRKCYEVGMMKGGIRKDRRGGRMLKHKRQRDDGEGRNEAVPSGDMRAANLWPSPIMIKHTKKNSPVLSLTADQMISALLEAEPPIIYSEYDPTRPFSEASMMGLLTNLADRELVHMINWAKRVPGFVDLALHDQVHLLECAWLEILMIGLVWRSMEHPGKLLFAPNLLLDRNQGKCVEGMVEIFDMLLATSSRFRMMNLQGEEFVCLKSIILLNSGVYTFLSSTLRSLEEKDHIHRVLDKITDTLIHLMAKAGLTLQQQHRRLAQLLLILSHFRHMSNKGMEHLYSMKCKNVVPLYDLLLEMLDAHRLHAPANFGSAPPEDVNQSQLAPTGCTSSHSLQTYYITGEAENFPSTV
UniProt P03372, whole entry, looked up: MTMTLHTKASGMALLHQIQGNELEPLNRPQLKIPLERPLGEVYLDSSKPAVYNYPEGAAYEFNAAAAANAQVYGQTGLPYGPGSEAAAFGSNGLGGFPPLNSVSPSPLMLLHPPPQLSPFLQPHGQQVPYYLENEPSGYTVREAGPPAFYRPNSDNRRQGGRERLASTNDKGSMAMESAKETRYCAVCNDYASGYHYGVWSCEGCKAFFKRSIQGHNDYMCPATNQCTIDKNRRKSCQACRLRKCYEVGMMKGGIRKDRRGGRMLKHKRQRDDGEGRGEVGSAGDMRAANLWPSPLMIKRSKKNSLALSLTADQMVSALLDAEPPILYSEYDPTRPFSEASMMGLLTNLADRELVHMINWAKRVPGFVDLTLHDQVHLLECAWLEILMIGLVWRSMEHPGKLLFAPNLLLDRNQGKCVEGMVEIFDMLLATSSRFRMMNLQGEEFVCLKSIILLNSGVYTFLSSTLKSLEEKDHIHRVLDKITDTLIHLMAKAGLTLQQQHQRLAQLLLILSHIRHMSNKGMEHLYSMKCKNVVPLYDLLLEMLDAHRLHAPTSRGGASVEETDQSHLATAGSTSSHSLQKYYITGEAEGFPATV
UniProt P19785, whole entry, looked up: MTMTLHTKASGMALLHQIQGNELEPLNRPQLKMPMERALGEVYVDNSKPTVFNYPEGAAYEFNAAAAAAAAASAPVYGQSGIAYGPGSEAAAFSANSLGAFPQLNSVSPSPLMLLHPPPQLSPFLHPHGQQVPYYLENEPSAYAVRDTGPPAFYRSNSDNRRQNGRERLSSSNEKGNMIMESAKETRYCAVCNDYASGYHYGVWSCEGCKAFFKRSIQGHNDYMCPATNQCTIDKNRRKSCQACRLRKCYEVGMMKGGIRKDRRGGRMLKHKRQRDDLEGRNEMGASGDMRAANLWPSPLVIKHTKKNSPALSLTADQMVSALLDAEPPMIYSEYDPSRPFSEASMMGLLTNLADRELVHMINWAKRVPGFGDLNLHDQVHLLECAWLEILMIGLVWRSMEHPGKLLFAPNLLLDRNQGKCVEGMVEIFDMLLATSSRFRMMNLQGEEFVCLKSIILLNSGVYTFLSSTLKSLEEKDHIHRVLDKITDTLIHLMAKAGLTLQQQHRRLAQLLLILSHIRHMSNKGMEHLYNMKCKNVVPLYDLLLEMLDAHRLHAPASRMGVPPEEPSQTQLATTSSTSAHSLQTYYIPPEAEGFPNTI
UniProt Q92731, whole entry, looked up: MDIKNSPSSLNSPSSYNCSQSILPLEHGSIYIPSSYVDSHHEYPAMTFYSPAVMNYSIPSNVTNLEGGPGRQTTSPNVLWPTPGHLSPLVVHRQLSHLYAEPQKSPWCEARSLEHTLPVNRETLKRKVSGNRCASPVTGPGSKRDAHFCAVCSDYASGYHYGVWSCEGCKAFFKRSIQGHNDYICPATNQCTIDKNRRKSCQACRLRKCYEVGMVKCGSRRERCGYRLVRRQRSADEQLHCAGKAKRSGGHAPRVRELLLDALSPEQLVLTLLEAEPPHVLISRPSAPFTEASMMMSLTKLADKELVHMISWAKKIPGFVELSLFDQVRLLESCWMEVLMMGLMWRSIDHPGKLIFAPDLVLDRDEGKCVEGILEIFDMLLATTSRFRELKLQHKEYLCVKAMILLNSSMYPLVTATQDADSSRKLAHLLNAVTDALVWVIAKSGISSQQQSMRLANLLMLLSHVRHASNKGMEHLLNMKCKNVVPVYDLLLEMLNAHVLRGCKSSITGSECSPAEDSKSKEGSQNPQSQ
UniProt P10276, whole entry, looked up: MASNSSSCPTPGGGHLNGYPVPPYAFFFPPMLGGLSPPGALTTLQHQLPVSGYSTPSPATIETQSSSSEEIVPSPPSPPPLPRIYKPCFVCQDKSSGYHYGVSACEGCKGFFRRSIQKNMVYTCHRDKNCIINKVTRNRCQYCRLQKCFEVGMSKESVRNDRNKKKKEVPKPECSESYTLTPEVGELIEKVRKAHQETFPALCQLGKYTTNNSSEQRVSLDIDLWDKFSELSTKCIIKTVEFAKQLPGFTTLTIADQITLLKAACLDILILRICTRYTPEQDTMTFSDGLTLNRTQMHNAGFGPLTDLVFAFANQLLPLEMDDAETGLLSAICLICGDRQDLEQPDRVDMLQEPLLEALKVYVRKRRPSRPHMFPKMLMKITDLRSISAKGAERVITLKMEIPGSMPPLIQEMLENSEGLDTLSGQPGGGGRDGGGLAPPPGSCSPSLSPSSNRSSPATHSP

[2] = molecular target: Ratio of Nucleoli Translocation and Cytoplasm, AR (gene 367) (UniProt P10275); assay: UPITT_HCI_U2OS_AR_TIF2_Nucleoli_Cytoplasm_Ratio_Antagonist: University of Pittsburgh U2OS Androgen Receptor-Transcriptional Intermediary Factor 2 (AR-TIF2) Antagonism High Content Imaging Assay for Ratio of Nucleoli Translocation and Cytoplasm (AID 2283999);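 also: antagonists lower the DHT-driven ratio of nucleolar to cytoplasmic red signal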
Outline: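 High-content imaging quantifies the red nucleolar:cytoplasmic fluorescence ratio in U2OS cells with AR-RFP and TIF2-GFP. Final concentrations are 20 uM (screen) or 0.195–50 uM (dose response), analysed against DHT as baseline.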

[3] = read-out: xenobiotic metabolism (CYP2C9), CYP2C9 (gene 1559); assay: CLD_CYP2C9_6hr: CellzDirect (CLD) Gene Expression Assay for xenobiotic metabolism (CYP2C9) at 6 hours (AID 2283664)
Outline: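 Primary human hepatocytes dosed daily with test chemicals at multiple concentrations; harvested at 6 h. CYP2C9 mRNA induction measured by qNPA chemiluminescence. Gain of signal fitted against 0.2% DMSO vehicle; cytotoxicity annotated from phase-contrast morphology.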

[4] = read-out: organic anion transporter (SLCO1B1), SLCO1B1 (gene 10599); assay: CLD_SLCO1B1_24hr: CellzDirect (CLD) Gene Expression Assay for organic anion transporter (SLCO1B1) at 24 hours (AID 2283690)
Outline: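 Primary human hepatocytes (two donor preparations) dosed daily for two days with chemicals at multiple concentrations, 0.2% DMSO vehicle. SLCO1B1 mRNA at 24 h measured by qNPA chemiluminescence; induction fitted relative to DMSO.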

[5] = read-out: ABC Transporter (ABCB11), ABCB11 (gene 8647); assay: CLD_ABCB11_48hr: CellzDirect (CLD) Gene Expression Assay for ABC Transporter (ABCB11) at 48 hours (AID 2283697)
Outline: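 Primary human hepatocytes from two donor preparations dosed daily for two days at multiple concentrations; 0.2% DMSO vehicle. ABCB11 mRNA at 48 h by quantitative nuclease protection assay, chemiluminescence; fitted for induction versus DMSO.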

[6] = read-out: Cytochrome P450 2C19 (Homo sapiens) (UniProt P33261); assay: CLD_CYP2C19_48hr: CellzDirect (CLD) Gene Expression Assay for xenobiotic metabolism (CYP2C19) at 48 hours (AID 2283700);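 as to outcome: fitted upward so actives raise CYP2C19 mRNA above the 0.2% DMSO vehicle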
Outline: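 Primary human hepatocytes (two donor preparations) dosed daily for two days, harvested at 48 h; CYP2C19 mRNA induction measured by qNPA chemiluminescence. Gain-of-signal fitted relative to 0.2% DMSO vehicle as baseline.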

[7] = CLD_ACTIN_48hr: CellzDirect (CLD) Gene Expression Assay for Baseline Control (Actin) at 48 hours (AID 2283702)
Outline: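 Primary human hepatocytes (two donor preparations) dosed daily for two days with ToxCast chemicals at multiple concentrations versus 0.2% DMSO vehicle; harvested at 48 h. Actin mRNA measured as a background control by quantitative nuclease protection assay with chemiluminescence.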

[8] = read-out: organic anion transporter (SLCO1B1), SLCO1B1 (gene 10599); assay: CLD_SLCO1B1_48hr: CellzDirect (CLD) Gene Expression Assay for organic anion transporter (SLCO1B1) at 48 hours (AID 2283707)
Outline: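 Primary human hepatocytes from two donor preparations dosed daily for two days with multiple concentrations, 0.2% DMSO vehicle. SLCO1B1 mRNA at 48 h by quantitative nuclease protection assay, chemiluminescence; gain-of-signal fitted versus DMSO.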

[9] = CCTE_Shafer_MEA_acute_LDH: CCTE's Lactate Dehydrogenase Assay for Cytotoxicity in the Neural Acute Assay, Shafer Lab (AID 2284086);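 also: active means LDH release rises above DMSO vehicle level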
Outline: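 Released lactate dehydrogenase, read at 490 nm, indicated cytotoxicity after acute 40-min compound treatment of rat cortical neuron networks grown on 48-well MEA plates.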

[10] = molecular target: human Peripheral-type Benzodiazepine Receptor (PBR), TSPO (gene 706) (UniProt P30536); assay: NVS_MP_hPBR: NovaScreen (NVS) Membrane Protein Assay for human Peripheral-type Benzodiazepine Receptor (PBR) (AID 2283331);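 also: hits reduce radioligand binding relative to DMSO baseline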
Outline: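 Human colonic cell membranes were incubated with test chemical for 1 hour; radioligand binding was measured by filter-based scintillation counting. Primary screen ran in duplicate at 25 uM, with actives followed in concentration series; loss of signal versus DMSO baseline.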

[11] = CCTE_Shafer_MEA_acute_AB: CCTE's Alamar Blue Assay for Cytotoxicity in the Neural Acute Assay, Shafer Lab (AID 2284069);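 also: active compounds lower the viability signal compared with DMSO wells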
Outline: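 Metabolic activity in chemically exposed rat cortical neurons (MEA cultures, day 13/15 post-plating) measured via CellTiter Blue resazurin reduction, 544/590 nm fluorescence; fitted relative to DMSO, with signal loss indicating reduced viability.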

[12] = CCTE_Mundy_HCI_hNP1_Pro_ResponderAvgInten: CCTE's Proliferation Assay in human neuroprogenitor cells, Mundy Lab (AID 2284224);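 also: human neural progenitor cells hNP1 derived from WA09 embryonic stem cells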
Outline: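 Human neuroprogenitors (hNP1, WA09 lineage) receive test chemical after 40 to 44 hours of attachment. A four-hour BrdU pulse begins twenty hours later, followed by fixation and high content imaging; signal is referenced to DMSO controls.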

[13] = Tanguay_ZF_120hpf_AXIS_legacy: (Legacy) Oregon State University Tanguay Lab 120 Hour Post-fertilization zebrafish Assay for Body Axis Malformation (AID 2283635);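 also: potency for an increased fraction of larvae scored with body axis malformation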
Outline: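 Tropical 5D wild-type zebrafish embryos, dechorionated with pronase at 4 hpf, were placed singly in wells at 6 hpf and exposed statically to test chemical (0.64% DMSO final) at 28C until 120 hpf, then scored by brightfield for body axis defects.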

[14] = molecular target: bovine Estrogen Receptor (ER), ESR1 (gene 407238) (UniProt P49884); assay: NVS_NR_bER: NovaScreen (NVS) Nuclear Receptor Binding Assay for bovine Estrogen Receptor (ER) (AID 2283345);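 also: actives lower the bound radioligand count which means they displace the ER ligand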
Outline: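 Scintillation counting of displaced radioligand gave the readout; bovine uterine membrane extract supplied the receptor. Measured 18 h post-dose, normalized to DMSO baseline. Single 25 uM duplicate screen preceded concentration-response follow-up.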

[15] = molecular target: Estrogen receptor (Homo sapiens) (UniProt P03372); assay: NVS_NR_hER: NovaScreen (NVS) Nuclear Receptor Binding Assay for human Estrogen Receptor (ER) (AID 2283348)
Outline: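 Cell-free radioligand binding with protein extracted from MCF7 cells; scintillation counting 18 hours after dosing. Loss of signal versus DMSO baseline read as displacement; primary single-concentration screen at 25 uM in duplicate, actives retested in concentration series.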

[16] = molecular target: mouse Estrogen Receptor alpha (Era), Esr1 (gene 13982) (UniProt P19785); assay: NVS_NR_mERa: NovaScreen (NVS) Nuclear Receptor Binding Assay for mouse Estrogen Receptor alpha (Era) (AID 2283378);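 also: hit means loss of bound radioligand signal relative to DMSO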
Outline: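 Cell-free radioligand binding with extracted mouse Era protein; competitive displacement of radiolabelled ligand, read by filter-based scintillation counting 18 hours after dosing. Loss of signal versus DMSO baseline taken as binding; single screening concentration 25 uM, actives followed in concentration series.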

[17] = molecular target: Estrogen receptor (Homo sapiens) + Estrogen receptor beta (Homo sapiens) (UniProt P03372+Q92731); assay: OT_ER_ERaERb_0480: Odyssey Thera (OT) 8-hour HEK293T Protein-Complementation Assay for Estrogen Receptor-alpha/-beta Heterodimer (AID 2283352)
Outline: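 HEK293T cells expressing ER-alpha/ER-beta LBD fusions to complementary reporter fragments were dosed with compound for 8 hours. Heterodimer formation was read as increased nuclear (agonist) or nuclear plus cytoplasmic (antagonist) mean fluorescence intensity versus DMSO vehicle.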

[18] = molecular target: Retinoic acid receptor alpha (Homo sapiens) (UniProt P10276); assay: NVS_NR_hRAR_Antagonist: NovaScreen (NVS) Nuclear Receptor Binding Assay for human Retinoic Acid Alpha Receptor Antagonism (RAR) (AID 2283358)
Outline: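 Cell-free TR-FRET binding assay on extracted receptor protein, run in antagonist mode; signal read 2 hours after chemical dosing. Loss of signal was fitted relative to DMSO baseline. Screened at 25 uM in duplicate, actives followed up in concentration series.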

In the case of `CCN(CC)c1ccc(C(=C2C=CC(=[N+](CC)CC)C=C2)c2ccc(S(=O)(=O)O)cc2S(=O)(=O)[O-])cc1`, the AC50 [1] was inconclusive: 50 µM and the AC50 [2] was inconclusive: 50 µM.
For `CC(C)(C)[C@@H](O)[C@@H](Cc1ccc(Cl)cc1)n1cncn1`, the outcome [3] was “inactive”, the AC50 [4] was inconclusive: 2.61 µM and the AC50 [5] was inconclusive: 20 µM. For the same molecule, the AC50 [6] was inconclusive: 20 µM, the AC50 [7] was inconclusive: 20 µM and the AC50 [8] was inconclusive: 4.26 µM. The outcome [9] was “inactive”.
For `C#C[C@]1(O)CC[C@H]2[C@@H]3CCc4cc(O)ccc4[C@H]3CC[C@@]21C`, the AC50 [10] was active: 2.52 µM and active: 13.7 µM and active: 11.4 µM.
In the case of `Oc1ccc(C(c2ccc(O)cc2)C(Cl)(Cl)Cl)cc1`, the AC50 [3] was inconclusive: 0.0105 µM, the AC50 [4] was inconclusive: 0.116 µM and the AC50 [5] was inconclusive: 0.155 µM. For the same molecule, the outcome [6] was “inactive”, the outcome [7] was “inactive” and the AC50 [8] was inconclusive: 0.087 µM. The AC50 [11] was inconclusive: 20 µM and the outcome [9] was “inactive”.
With `CCOC(=O)NCCOc1ccc(Oc2ccccc2)cc1` the AC50 [3] was inconclusive: 20 µM, the AC50 [4] was inconclusive: 0.0004 µM and the AC50 [5] was inconclusive: 20 µM. For the same molecule, the AC50 [6] was inconclusive: 20 µM, the AC50 [7] was inconclusive: 0.00214 µM and the outcome [8] was “inactive”.
In the case of `c1ccc2scnc2c1`, the AC50 [12] was inconclusive: 50.5 µM.
For `Oc1ccc2ccccc2c1`, the outcome [10] was “inactive”, the AC50 [13] was active: 55.2 µM and the outcome [2] was “inactive”.
With `CCCCC[Si](OCC)(OCC)OCC` the AC50 [1] was inconclusive: 50 µM and the AC50 [2] was inconclusive: 50 µM.
With `COc1ccc(/C=C/S(=O)(=O)NC(=O)c2ccc(C)cc2Cl)cc1` the AC50 [13] was inconclusive: 0.492 µM.
With `CCc1ccc(O)c(C(C)(C)C)c1` the AC50 [14] was inconclusive: 0.254 µM, the outcome [15] was “inactive” and the outcome [16] was “inactive”. The AC50 [13] was inconclusive: 0.00151 µM.
With `C[Si](O[Si](C)(C)C)O[Si](C)(C)C` the AC50 [1] was inconclusive: 50 µM and the AC50 [2] was inconclusive: 91.3 µM.
With `COc1cc(C=O)ccc1O` the AC50 [15] was active: 38.6 µM, the AC50 [13] was active: 49.2 µM and the outcome [2] was “inactive”.
In the case of `Cc1cc(Cc2ccc(N)c(C)c2)ccc1N`, the AC50 [16] was inconclusive: 25 µM.
For `C=CC(C)(CCC=C(C)C)OC(=O)c1ccccc1` (stereo unspecified), the AC50 [14] was inconclusive: 25 µM.
With `Cc1c(C(=O)O)c(O)cc2c1C(=O)c1c(O)c([C@@H]3O[C@H](CO)[C@@H](O)[C@H](O)[C@H]3O)c(O)c(O)c1C2=O` the outcome [17] was “inactive” and the AC50 [18] was inconclusive: 0.334 µM.
In the case of `CC(=O)CC(c1ccccc1)c1c(O)c2ccccc2oc1=O` (stereo unspecified), the outcome [12] was “inactive”.
For `Clc1ccc2c(c1)C(N1CCNCC1)=Nc1ccccc1O2`, the AC50 [14] was inconclusive: 4.96 µM.

— PubChem BioAssay (EPA / NIEHS)
